The source of these data is patent US4104371 (dated 1978).

A short description of the series: general procedure: solution-phase peptide synthesis; DCCI/HOBt; azide coupling (iso-amyl nitrite); ONP active ester. As to conditions: late stage modification step, acetate.

[ ]: non-standard residue; d: D form.

Substance H-MAAA[dK]FG-OH came in with a step yield of 78%.
